ChEMBL document CHEMBL4316593 (Eur J Med Chem, 2019)
Further values from the same series stand in other lists.

What was measured:
Type in all cases: cell-based
Conditions in all cases: U-87MG ATCC
[1] = Inhibition of RTK/PI3K/AKT/mTOR signaling in human U87 cells assessed as down regulation of CA2 gene expression at cytotoxic IC50 measured after 48 hrs relative to control
[2] = Inhibition of RTK/PI3K/AKT/mTOR signaling in human U87 cells assessed as down regulation of PIWIL2 gene expression at cytotoxic IC50 measured after 48 hrs relative to control
[3] = Inhibition of RTK/PI3K/AKT/mTOR signaling in human U87 cells assessed as down regulation of KIF3B gene expression at cytotoxic IC50 measured after 48 hrs relative to control
[4] = Inhibition of RTK/PI3K/AKT/mTOR signaling in human U87 cells assessed as down regulation of RELT gene expression at cytotoxic IC50 measured after 48 hrs relative to control
[5] = Inhibition of RTK/PI3K/AKT/mTOR signaling in human U87 cells assessed as down regulation of HHLA3 gene expression at cytotoxic IC50 measured after 48 hrs relative to control
[6] = Inhibition of RTK/PI3K/AKT/mTOR signaling in human U87 cells assessed as down regulation of TERF2IP gene expression at cytotoxic IC50 measured after 48 hrs relative to control
[7] = Inhibition of RTK/PI3K/AKT/mTOR signaling in human U87 cells assessed as down regulation of RUSC2 gene expression at cytotoxic IC50 measured after 48 hrs relative to control
[8] = Inhibition of RTK/PI3K/AKT/mTOR signaling in human U87 cells assessed as down regulation of FAM53B gene expression at cytotoxic IC50 measured after 48 hrs relative to control
[9] = Inhibition of RTK/PI3K/AKT/mTOR signaling in human U87 cells assessed as down regulation of ZNF746 gene expression at cytotoxic IC50 measured after 48 hrs relative to control
[10] = Inhibition of RTK/PI3K/AKT/mTOR signaling in human U87 cells assessed as down regulation of SLC9A1 gene expression at cytotoxic IC50 measured after 48 hrs relative to control
[11] = Inhibition of RTK/PI3K/AKT/mTOR signaling in human U87 cells assessed as down regulation of DYNC1I2 gene expression at cytotoxic IC50 measured after 48 hrs relative to control
[12] = Inhibition of RTK/PI3K/AKT/mTOR signaling in human U87 cells assessed as down regulation of LNX2 gene expression at cytotoxic IC50 measured after 48 hrs relative to control
[13] = Inhibition of RTK/PI3K/AKT/mTOR signaling in human U87 cells assessed as down regulation of AGO2 gene expression at cytotoxic IC50 measured after 48 hrs relative to control
[14] = Inhibition of RTK/PI3K/AKT/mTOR signaling in human U87 cells assessed as down regulation of EXOC6 gene expression at cytotoxic IC50 measured after 48 hrs relative to control
[15] = Inhibition of RTK/PI3K/AKT/mTOR signaling in human U87 cells assessed as down regulation of GSTP1 gene expression at cytotoxic IC50 measured after 48 hrs relative to control
[16] = Inhibition of RTK/PI3K/AKT/mTOR signaling in human U87 cells assessed as down regulation of NUP93 gene expression at cytotoxic IC50 measured after 48 hrs relative to control
[17] = Inhibition of RTK/PI3K/AKT/mTOR signaling in human U87 cells assessed as down regulation of BRPF3 gene expression at cytotoxic IC50 measured after 48 hrs relative to control
[18] = Inhibition of RTK/PI3K/AKT/mTOR signaling in human U87 cells assessed as down regulation of LSG1 gene expression at cytotoxic IC50 measured after 48 hrs relative to control
[19] = Inhibition of RTK/PI3K/AKT/mTOR signaling in human U87 cells assessed as down regulation of SCARB2 gene expression at cytotoxic IC50 measured after 48 hrs relative to control
[20] = Inhibition of RTK/PI3K/AKT/mTOR signaling in human U87 cells assessed as up regulation of ABCA12 gene expression at cytotoxic IC50 measured after 48 hrs relative to control
[21] = Inhibition of RTK/PI3K/AKT/mTOR signaling in human U87 cells assessed as up regulation of ALDH1L2 gene expression at cytotoxic IC50 measured after 48 hrs relative to control
[22] = Inhibition of RTK/PI3K/AKT/mTOR signaling in human U87 cells assessed as up regulation of KLF15 gene expression at cytotoxic IC50 measured after 48 hrs relative to control
[23] = Inhibition of RTK/PI3K/AKT/mTOR signaling in human U87 cells assessed as up regulation of Rho GTPase activating protein 45 gene expression at cytotoxic IC50 measured after 48 hrs relative to control
[24] = Inhibition of RTK/PI3K/AKT/mTOR signaling in human U87 cells assessed as up regulation of caldesmon 1 gene expression at cytotoxic IC50 measured after 48 hrs relative to control
[25] = Inhibition of RTK/PI3K/AKT/mTOR signaling in human U87 cells assessed as up regulation of F-box protein 17 gene expression at cytotoxic IC50 measured after 48 hrs relative to control
[26] = Inhibition of RTK/PI3K/AKT/mTOR signaling in human U87 cells assessed as up regulation of ALG12, alpha-1,6-mannosyltransferase gene expression at cytotoxic IC50 measured after 48 hrs relative to control
[27] = Inhibition of RTK/PI3K/AKT/mTOR signaling in human U87 cells assessed as up regulation of leptin receptor overlapping transcript gene expression at cytotoxic IC50 measured after 48 hrs relative to control
[28] = Inhibition of RTK/PI3K/AKT/mTOR signaling in human U87 cells assessed as up regulation of reticulocalbin 1 gene expression at cytotoxic IC50 measured after 48 hrs relative to control
[29] = Inhibition of RTK/PI3K/AKT/mTOR signaling in human U87 cells assessed as up regulation of apurinic/apyrimidinic endodeoxyribonuclease 1 gene expression at cytotoxic IC50 measured after 48 hrs relative to control
[30] = Inhibition of RTK/PI3K/AKT/mTOR signaling in human U87 cells assessed as up regulation of zinc finger DHHC-type containing 20 gene expression at cytotoxic IC50 measured after 48 hrs relative to control
[31] = Inhibition of RTK/PI3K/AKT/mTOR signaling in human U87 cells assessed as up regulation of cyclin dependent kinase 10 gene expression at cytotoxic IC50 measured after 48 hrs relative to control
[32] = Inhibition of RTK/PI3K/AKT/mTOR signaling in human U87 cells assessed as up regulation of aryl hydrocarbon receptor interacting protein gene expression at cytotoxic IC50 measured after 48 hrs relative to control

SMILES: CC(=O)C(=NNc1ccccc1C#N)C(C)=O
- log2FC [1]: -3.77
- log2FC [2]: -3.23
- log2FC [3]: -1.34
- log2FC [4]: -1.31
- log2FC [5]: -1.14
- log2FC [6]: -1.08
- log2FC [7]: -1.03
- log2FC [8]: -1
- log2FC [9]: -0.888
- log2FC [10]: -0.801
- log2FC [11]: -0.781
- log2FC [12]: -0.769
- log2FC [13]: -0.712
- log2FC [14]: -0.668
- log2FC [15]: -0.612
- log2FC [16]: -0.604
- log2FC [17]: -0.55
- log2FC [18]: -0.532
- log2FC [19]: -0.408
- log2FC [20]: 2.99
- log2FC [21]: 2.44
- log2FC [22]: 2.04
- log2FC [23]: 1.35
- log2FC [24]: 1.3
- log2FC [25]: 1.25
- log2FC [26]: 1.14
- log2FC [27]: 1.08
- log2FC [28]: 1.05
- log2FC [29]: 0.908
- log2FC [30]: 0.811
- log2FC [31]: 0.768
- log2FC [32]: 0.747
